Measurements: paper doi:10.1101/2020.08.29.273516
Where two headings read alike, the source gives them in different places. These are yes or no findings as the source states them, for the method shown. For some assays here: Binding can be weak; no strength is given. For some assays here: Where a sequence is shown, tags or fusion partners need not be part of it.

By UniProt entry, the sequences of proteins in these tests, tags left out. Residues count along the entry.
UniProt O00206, residues 676-835: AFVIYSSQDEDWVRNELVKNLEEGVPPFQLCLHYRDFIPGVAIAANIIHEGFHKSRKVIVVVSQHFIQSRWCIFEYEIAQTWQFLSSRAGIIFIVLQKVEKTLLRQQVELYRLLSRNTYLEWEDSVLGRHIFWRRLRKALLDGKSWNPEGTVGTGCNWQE
UniProt Q86XR7, residues 73-229: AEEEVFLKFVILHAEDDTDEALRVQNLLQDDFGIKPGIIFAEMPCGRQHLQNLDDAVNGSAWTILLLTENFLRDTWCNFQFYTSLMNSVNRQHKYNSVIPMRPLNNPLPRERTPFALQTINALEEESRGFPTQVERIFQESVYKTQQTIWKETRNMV
UniProt P58753, residues 84-213: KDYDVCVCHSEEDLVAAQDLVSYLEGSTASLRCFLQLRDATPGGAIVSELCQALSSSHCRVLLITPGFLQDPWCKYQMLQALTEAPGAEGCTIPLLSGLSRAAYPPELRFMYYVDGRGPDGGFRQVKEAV
UniProt O60603, residues 639-782: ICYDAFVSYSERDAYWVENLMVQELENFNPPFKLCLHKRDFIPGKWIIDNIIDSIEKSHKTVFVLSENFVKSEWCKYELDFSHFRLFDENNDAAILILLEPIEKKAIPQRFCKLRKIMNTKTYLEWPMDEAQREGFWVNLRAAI
UniProt Q99836, residues 159-293: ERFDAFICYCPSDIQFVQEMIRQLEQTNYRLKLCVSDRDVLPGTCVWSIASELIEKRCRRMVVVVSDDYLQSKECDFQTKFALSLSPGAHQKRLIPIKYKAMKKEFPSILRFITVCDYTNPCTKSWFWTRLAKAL

Columns and labels:
Test in all cases: pull-down
[1] = biological target: GST-TLR4-TIR (GST-tagged cytoplasmic Toll/interleukin-1 receptor module of TLR4, aa 676-835) (UniProt O00206)
[2] = biological target: GST-tagged TIR module of the adaptor TRAM (UniProt Q86XR7)
[3] = biological target: GST-tagged TIR module of the adaptor Mal (UniProt P58753)
[4] = biological target: T1, GST-tagged TIR module of TLR6 (UniProt Q9Y2C9)
T1 sequence: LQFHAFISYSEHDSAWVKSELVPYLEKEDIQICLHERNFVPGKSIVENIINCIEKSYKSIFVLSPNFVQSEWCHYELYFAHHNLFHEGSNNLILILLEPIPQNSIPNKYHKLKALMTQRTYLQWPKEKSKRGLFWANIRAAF

[5] = biological target: T2, GST-tagged TIR module of TLR1 (UniProt Q15399)
T2 sequence: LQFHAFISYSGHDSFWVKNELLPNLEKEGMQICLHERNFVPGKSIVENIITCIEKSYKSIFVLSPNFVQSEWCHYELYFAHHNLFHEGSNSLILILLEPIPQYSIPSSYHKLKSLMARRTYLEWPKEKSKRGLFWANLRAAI

[6] = biological target: GST-tagged TIR module of TLR2 (UniProt O60603)
[7] = biological target: GST-TLR4-TIR (GST-tagged cytoplasmic Toll/interleukin-1 receptor module of TLR4, aa 676-835) (UniProt O00206); remark: listed apart in the source
[8] = biological target: GST-tagged TIR module of the adaptor MyD88 (UniProt Q99836)

For “His-GIV-CT (recombinant C-terminus of GIV) (from UniProt Q3V6T2-3) (domain or fragment)”, the binding [1] was “binds”, the binding [2] was “binds” and the binding [3] was “binds”. For the same substance, the binding [4] was “no binding”, the binding [5] was “no binding” and the binding [6] was “no binding”. The binding [7] was “binds” and the binding [8] was “no binding”.
